These results are taken from paper PMC9805129.

Sequences of proteins named here, by UniProt entry; tags and fusion partners are left off. A change or cut given only in a name is not applied to a line headed by its entry. Residues count along the entry.
UniProt Q4LDE5, residues 18-3571: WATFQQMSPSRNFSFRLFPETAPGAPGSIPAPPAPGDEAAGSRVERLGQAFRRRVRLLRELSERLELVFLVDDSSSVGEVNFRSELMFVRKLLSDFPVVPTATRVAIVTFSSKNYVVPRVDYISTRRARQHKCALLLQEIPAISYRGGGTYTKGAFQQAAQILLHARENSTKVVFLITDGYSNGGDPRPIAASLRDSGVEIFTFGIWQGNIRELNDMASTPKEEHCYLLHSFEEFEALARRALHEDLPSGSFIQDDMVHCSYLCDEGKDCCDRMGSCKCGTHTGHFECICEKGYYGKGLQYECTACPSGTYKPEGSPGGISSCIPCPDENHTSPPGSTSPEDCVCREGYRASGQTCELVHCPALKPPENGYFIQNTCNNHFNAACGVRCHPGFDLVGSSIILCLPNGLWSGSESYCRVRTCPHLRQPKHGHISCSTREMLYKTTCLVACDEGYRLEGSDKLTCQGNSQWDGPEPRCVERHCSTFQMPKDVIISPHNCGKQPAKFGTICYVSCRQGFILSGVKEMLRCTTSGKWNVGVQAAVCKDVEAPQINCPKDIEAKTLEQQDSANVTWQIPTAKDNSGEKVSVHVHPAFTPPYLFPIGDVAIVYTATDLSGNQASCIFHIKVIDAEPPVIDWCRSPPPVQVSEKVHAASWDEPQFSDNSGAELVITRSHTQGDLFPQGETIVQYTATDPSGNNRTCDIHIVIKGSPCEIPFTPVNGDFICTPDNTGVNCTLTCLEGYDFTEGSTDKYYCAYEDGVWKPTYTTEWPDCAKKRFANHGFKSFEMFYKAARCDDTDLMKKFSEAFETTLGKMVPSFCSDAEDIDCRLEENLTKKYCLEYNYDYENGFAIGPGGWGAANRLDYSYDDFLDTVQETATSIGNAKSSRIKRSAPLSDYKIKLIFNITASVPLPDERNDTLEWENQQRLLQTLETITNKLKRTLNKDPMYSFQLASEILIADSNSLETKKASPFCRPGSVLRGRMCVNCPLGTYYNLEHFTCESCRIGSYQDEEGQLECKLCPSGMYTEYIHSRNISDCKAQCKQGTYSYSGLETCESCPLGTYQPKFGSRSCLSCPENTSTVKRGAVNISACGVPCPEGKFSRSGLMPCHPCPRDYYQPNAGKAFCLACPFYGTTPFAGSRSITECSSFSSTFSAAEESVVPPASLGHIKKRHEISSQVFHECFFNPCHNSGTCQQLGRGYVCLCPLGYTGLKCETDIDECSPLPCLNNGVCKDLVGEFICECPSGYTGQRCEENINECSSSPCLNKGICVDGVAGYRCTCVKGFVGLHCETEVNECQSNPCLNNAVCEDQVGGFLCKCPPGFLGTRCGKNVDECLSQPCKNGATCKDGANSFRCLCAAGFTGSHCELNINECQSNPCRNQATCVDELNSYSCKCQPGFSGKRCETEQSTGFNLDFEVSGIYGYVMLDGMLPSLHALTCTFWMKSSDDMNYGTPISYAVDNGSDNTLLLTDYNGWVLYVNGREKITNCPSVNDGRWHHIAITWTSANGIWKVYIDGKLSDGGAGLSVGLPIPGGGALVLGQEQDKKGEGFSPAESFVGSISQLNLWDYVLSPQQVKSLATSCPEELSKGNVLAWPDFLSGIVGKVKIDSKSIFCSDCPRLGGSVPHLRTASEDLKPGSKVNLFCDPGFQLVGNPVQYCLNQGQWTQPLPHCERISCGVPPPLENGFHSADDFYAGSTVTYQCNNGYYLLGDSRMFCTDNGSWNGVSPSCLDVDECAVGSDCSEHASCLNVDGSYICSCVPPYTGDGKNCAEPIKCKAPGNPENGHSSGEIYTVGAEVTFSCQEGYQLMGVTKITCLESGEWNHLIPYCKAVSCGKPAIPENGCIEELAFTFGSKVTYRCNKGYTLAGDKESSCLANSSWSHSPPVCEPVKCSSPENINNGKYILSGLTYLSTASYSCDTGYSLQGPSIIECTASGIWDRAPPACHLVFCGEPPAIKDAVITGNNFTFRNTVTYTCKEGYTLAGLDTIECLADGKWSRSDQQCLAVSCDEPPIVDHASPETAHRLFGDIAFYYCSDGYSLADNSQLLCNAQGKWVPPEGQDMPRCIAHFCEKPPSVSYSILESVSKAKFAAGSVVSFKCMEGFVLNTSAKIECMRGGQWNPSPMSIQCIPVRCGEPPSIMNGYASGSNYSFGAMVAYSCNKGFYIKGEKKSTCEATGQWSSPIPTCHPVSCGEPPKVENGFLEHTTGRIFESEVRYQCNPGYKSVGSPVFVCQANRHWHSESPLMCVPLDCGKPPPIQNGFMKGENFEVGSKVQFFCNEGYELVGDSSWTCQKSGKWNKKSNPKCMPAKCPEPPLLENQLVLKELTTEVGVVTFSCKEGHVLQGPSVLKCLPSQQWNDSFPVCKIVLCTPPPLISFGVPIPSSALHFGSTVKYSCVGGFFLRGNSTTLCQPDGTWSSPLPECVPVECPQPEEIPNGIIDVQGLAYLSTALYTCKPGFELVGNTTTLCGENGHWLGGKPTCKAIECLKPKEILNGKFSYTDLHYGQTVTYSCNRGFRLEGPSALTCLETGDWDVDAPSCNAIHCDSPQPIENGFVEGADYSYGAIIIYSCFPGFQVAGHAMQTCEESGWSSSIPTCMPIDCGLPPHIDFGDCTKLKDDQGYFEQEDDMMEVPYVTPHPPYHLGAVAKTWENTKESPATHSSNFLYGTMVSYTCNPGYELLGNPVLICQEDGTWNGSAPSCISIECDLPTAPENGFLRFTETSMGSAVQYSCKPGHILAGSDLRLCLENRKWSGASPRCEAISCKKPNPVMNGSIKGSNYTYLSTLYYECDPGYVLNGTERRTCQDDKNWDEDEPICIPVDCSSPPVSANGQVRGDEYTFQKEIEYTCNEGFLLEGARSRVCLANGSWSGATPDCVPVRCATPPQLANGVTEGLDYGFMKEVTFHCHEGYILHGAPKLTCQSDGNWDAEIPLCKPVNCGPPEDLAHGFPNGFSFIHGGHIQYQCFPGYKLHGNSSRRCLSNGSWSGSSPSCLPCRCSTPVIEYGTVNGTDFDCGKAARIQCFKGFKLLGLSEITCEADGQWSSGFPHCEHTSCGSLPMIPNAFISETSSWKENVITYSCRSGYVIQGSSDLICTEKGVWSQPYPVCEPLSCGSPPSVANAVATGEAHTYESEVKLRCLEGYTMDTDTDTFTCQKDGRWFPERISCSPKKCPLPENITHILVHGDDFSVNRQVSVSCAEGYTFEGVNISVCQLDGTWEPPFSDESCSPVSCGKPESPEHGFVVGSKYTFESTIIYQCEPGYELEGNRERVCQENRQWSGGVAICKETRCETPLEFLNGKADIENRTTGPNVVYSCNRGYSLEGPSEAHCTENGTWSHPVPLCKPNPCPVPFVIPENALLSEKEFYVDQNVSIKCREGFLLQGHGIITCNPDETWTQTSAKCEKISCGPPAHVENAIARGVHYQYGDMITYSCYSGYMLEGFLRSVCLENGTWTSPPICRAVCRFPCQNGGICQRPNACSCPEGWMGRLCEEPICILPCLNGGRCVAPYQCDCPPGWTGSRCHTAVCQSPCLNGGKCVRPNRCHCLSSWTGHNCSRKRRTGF
UniProt P13612: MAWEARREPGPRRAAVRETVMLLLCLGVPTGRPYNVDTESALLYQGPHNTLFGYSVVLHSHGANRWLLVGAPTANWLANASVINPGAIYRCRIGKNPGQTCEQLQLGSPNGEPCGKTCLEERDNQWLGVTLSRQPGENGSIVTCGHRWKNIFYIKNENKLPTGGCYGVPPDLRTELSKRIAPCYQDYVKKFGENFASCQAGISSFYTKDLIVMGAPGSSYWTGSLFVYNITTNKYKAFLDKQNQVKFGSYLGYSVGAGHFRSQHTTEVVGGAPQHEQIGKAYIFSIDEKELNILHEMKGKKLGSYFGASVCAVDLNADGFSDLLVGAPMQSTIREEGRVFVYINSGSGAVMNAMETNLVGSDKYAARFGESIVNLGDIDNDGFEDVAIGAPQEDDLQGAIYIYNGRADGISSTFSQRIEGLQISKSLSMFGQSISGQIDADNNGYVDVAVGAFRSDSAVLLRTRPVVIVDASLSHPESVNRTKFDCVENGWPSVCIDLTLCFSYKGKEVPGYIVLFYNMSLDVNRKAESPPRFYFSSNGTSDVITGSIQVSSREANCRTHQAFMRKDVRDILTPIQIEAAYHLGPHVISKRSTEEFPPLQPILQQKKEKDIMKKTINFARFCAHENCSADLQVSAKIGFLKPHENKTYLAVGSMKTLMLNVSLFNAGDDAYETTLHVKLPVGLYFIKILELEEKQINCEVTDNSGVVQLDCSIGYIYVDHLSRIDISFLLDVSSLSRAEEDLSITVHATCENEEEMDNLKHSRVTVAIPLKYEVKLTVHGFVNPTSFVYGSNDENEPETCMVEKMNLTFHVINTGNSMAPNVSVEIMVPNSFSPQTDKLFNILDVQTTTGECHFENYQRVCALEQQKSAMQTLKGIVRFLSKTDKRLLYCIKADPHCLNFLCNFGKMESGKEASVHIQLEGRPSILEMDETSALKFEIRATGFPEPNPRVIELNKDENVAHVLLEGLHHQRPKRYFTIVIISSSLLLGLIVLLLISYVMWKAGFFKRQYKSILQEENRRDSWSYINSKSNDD
UniProt Q13797: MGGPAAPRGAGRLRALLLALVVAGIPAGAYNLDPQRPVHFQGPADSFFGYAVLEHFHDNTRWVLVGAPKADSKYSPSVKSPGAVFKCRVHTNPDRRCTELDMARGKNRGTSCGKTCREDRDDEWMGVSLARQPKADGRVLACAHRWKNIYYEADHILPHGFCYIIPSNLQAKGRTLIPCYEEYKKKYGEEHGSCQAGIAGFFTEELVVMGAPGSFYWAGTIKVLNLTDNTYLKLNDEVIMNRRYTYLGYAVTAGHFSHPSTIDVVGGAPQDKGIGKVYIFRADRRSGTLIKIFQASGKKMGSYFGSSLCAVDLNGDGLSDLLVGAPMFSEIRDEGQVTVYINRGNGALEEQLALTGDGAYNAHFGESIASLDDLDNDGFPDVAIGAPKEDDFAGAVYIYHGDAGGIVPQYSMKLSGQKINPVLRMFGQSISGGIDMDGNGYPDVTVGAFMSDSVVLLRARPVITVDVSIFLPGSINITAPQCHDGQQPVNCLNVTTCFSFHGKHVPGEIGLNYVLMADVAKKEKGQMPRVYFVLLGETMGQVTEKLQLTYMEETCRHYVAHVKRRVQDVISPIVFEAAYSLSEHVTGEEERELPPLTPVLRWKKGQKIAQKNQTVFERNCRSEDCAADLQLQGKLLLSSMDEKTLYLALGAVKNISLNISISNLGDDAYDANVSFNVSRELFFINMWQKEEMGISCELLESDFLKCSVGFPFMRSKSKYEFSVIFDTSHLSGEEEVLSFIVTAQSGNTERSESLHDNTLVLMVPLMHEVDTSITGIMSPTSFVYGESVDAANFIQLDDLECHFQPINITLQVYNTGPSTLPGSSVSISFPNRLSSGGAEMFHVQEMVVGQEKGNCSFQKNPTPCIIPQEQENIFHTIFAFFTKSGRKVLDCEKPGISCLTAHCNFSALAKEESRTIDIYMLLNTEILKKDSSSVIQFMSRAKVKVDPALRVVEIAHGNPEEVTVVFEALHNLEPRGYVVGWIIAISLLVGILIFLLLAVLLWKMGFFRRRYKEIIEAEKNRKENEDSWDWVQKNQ

No constants are given. Whether binding was seen depends on the method and setting. Binding seen in cells or lysates may run through a third protein. Some results given as binding are weak or reduced against the parent protein; the word gives no strength.

In this test the target is Sushi, von Willebrand factor type A, EGF and pentraxin domain-containing protein 1 (SVEP1), FLAG-tagged (UniProt Q4LDE5). The test can be described thus: co-IP; anti-FLAG agarose beads with cleared lysates of transfected HEK293A cells (50 mM Tris-HCl, 150 mM NaCl, 1 mM EDTA, 1% Triton X-100), 90 min at 4°C; blots with anti-integrin α4 or anti-GFP.

As for “integrin α4β1 (from UniProt P13612 34-1032; P05556 21-798) (receptor)”, the binding result is “binds”.

In the case of “integrin α9β1, α9 subunit GFP-tagged (from UniProt Q13797 30-1035; P05556 21-798) (receptor)”, the binding result is reported as “binds”.
